Test results from article PMC6814716.
No constants are given. Whether binding was seen depends on the method and setting. Binding seen in cells or lysates may run through a third protein. A result given as binding can be weak or reduced; the word gives no strength.

Amino acid sequences for entries named in this document (tags omitted). A change or cut given only in a name is not applied to a line headed by its entry.
UniProt O43474: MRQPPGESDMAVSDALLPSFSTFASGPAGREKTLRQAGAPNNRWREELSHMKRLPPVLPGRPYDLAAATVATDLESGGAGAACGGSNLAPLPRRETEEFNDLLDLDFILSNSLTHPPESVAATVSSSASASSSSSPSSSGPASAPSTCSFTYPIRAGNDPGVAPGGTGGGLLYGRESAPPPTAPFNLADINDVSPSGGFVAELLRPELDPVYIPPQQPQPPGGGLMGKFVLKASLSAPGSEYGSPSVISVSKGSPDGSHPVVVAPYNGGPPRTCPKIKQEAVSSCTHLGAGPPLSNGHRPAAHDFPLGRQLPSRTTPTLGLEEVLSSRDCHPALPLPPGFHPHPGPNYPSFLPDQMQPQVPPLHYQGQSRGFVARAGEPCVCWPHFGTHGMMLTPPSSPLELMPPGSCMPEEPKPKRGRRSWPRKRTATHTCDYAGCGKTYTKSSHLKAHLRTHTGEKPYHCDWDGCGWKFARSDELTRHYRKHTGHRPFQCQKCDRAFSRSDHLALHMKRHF
UniProt Q92841: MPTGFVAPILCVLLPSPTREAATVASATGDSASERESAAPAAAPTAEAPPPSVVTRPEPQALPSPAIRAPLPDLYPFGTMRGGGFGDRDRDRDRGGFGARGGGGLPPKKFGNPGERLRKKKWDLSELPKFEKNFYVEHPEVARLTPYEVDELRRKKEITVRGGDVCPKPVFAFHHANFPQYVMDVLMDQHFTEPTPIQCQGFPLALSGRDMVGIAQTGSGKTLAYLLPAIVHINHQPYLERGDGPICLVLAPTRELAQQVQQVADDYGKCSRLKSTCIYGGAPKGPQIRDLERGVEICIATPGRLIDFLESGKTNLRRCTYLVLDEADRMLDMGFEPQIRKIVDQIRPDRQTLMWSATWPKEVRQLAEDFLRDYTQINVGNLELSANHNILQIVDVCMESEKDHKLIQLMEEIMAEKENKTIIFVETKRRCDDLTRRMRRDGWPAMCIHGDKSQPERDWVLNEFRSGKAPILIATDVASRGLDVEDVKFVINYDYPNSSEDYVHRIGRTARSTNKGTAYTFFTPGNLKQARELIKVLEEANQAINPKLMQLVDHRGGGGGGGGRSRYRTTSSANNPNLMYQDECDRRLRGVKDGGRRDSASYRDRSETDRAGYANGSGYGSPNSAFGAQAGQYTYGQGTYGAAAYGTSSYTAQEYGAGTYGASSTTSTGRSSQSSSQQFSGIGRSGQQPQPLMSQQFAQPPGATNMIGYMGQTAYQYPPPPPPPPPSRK

Target: mutant Klf4 (three zinc-fingers mutant / zinc-finger domain deleted) (UniProt O43474)
Experiment: co-IP; HEK293T and SMMC7721 cells transfected with Flag-DDX17 or HA-Klf4 plasmid for 48 h, lysed; Flag-M2/HA beads; washed four times with cell lysis buffer; Western blotting (mutant Klf4 in HEK293T only)

## Flag-DDX17 (DEAD box RNA helicase 17) (from UniProt Q92841 1-729)
  binding: binds weakly
